Construct, isoform or probe ends are uncertain for at least one entry. Where cells or extracts were used, other partners may take part. Negatives hold for the conditions tested.
Target: Glypican-3 (GPC3) on HepG2 cell surface (UniProt P51654)
Assay: cell binding, confocal microscopy
Conditions: HepG2 cells (GPC3+), 30 min, 5'-DBCO in the Table S1 version, Live HepG2 or HeLa cells incubated with FAM-labelled aptamer for 30 min, protein on the cell surface, label: 3'-FAM, single-stranded DNA

The chains behind the UniProt entries cited, without tags or fusion partners. Where a name states a change or a piece, a line headed by the entry shows the natural chain unless it says otherwise.
UniProt P51654: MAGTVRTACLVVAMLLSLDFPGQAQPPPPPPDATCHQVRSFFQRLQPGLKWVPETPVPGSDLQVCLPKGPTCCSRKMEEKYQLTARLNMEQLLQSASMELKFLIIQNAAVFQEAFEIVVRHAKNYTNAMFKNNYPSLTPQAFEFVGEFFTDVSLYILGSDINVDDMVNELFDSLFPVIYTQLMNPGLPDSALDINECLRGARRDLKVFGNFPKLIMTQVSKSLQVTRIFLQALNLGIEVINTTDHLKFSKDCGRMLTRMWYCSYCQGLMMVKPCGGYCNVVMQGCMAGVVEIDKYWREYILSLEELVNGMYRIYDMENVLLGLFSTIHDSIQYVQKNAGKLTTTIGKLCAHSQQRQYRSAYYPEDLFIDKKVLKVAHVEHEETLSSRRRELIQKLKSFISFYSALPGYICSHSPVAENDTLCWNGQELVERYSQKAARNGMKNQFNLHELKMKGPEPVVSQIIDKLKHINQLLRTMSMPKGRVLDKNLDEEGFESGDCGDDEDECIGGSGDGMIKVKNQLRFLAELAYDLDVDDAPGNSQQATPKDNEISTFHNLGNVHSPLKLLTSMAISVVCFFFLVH

Row | Sequence | binding result (no binding to GPC3-negative HeLa cells, the free aptamer is described only as FAM-modified) | binding result
1 | TAACGCTGACCTTAGCTGCATGGCTTTACATGTTCCA [Gpc3 aptamer-FAM] | binds | 
2 | TGATGATTAACGTCGTTACCTTGATCTGCGTATCCTA [Random aptamer (Gpc3 aptamer with random mutations)] |  | no binding

From paper PMC10477160
